The assay has as its target GST-NR2E1 (human) (UniProt Q9Y466). In words: pull-down; GST or GST fusion from E. coli lysate held on glutathione MagBeads, washed, blocked with 1 % BSA/PBS; HEK293 lysate (0.1 % BSA) with the overexpressed protein for two hours at 4 °C; western blot (anti-FLAG, anti-EGFP, anti-myc); only the target purified.

By UniProt entry, the sequences of proteins in these tests, tags left out. Where a name states a change or a piece, a line headed by the entry shows the natural chain unless it says otherwise.
UniProt Q9Y466: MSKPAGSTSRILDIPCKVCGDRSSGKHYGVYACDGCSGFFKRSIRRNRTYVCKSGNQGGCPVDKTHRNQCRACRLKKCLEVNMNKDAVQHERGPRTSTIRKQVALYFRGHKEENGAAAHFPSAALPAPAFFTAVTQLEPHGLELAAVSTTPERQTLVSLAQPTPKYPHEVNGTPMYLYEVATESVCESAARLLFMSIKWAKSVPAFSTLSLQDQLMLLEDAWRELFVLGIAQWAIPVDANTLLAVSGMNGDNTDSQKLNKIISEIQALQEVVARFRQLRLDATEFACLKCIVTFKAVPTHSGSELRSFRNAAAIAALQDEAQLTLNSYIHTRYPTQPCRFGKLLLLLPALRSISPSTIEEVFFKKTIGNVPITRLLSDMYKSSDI

Results are given in words; binding and its absence hold for the method and conditions named. Binding seen in cells or lysates may run through a third protein. Tags and fused reporters may be left off the sequences shown.

B1: myc-tagged PRGC1 (Myc-PRGC1) (protein, UniProt O70343 1-797)
chain: MAWDMCSQDSVWSDIECAALVGEDQPLCPDLPELDLSELDVNDLDTDSFLGGLKWCSDQSEIISNQYNNEPANIFEKIDEENEANLLAVLTETLDSLPVDEDGLPSFDALTDGAVTTDNEASPSSMPDGTPPPQEAEEPSLLKKLLLAPANTQLSYNECSGLSTQNHAANHTHRIRTNPAIVKTENSWSNKAKSICQQQKPQRRPCSELLKYLTTNDDPPHTKPTENRNSSRDKCASKKKSHTQPQSQHAQAKPTTLSLPLTPESPNDPKGSPFENKTIERTLSVELSGTAGLTPPTTPPHKANQDNPFKASPKLKPSCKTVVPPPTKRARYSECSGTQGSHSTKKGPEQSELYAQLSKSSGLSRGHEERKTKRPSLRLFGDHDYCQSLNSKTDILINISQELQDSRQLDFKDASCDWQGHICSSTDSGQCYLRETLEASKQVSPCSTRKQLQDQEIRAELNKHFGHPCQAVFDDKSDKTSELRDGDFSNEQFSKLPVFINSGLAMDGLFDDSEDESDKLSYPWDGTQPYSLFDVSPSCSSFNSPCRDSVSPPKSLFSQRPQRMRSRSRSFSRHRSCSRSPYSRSRSRSPGSRSSSRSCYYYESSHYRHRTHRNSPLYVRSRSRSPYSRRPRYDSYEAYEHERLKRDEYRKEHEKRESERAKQRERQKQKAIEERRVIYVGKIRPDTTRTELRDRFEVFGEIEECTVNLRDDGDSYGFITYRYTCDAFAALENGYTLRRSNETDFELYFCGRKQFFKSNYADLDTNSDDFDPASTKSKYDSLDFDSLLKEAQRSLRR
Regarding B1, the binding result was “no binding”.

The record behind these values is publication PMC5080790.
